From patent US12324855B2, “Method of safe administration of phosphorylated Tau peptide vaccine” (AC Immune SA, priority 2019, dated 2025)
Some results were stated once for a whole list of compounds, not compound by compound.

Test system: CD4+ T-cell response in PBMCs from 51 human donors
Assay: EpiScreen time course T-cell proliferation and IL-2 ELISPOT assays (Example 6)
Format: cell-based
Settings: cohort of 51 HLA-typed donors
Protocol: Two 16-mer peptides, Tau 393-408[pS396/pS404] (T3.5 having the amino acid sequence of SEQ ID NO:2) and Tau393-408 (T3.6 having the amino acid sequence of SEQ ID NO:4) were tested in EpiScreen™ time course T-cell assays for the capacity to induce CD4^+ T-cell response in 51 human donors.
EpiScreen™ Time Course T-cell Proliferation Assays and IL-2 ELISPOT Assays
PBMCs from 51 human donors were stimulated with either peptide at a final concentration of 5 μM. For each donor, a reproducibility control (cells incubated with 100 μg/mL KLH), a benchmark clinical control (cells incubated with 0.3 μM humanized A33) and a culture medium only well were also included. Proliferation and IL-2 production were evaluated after different time points.
For proliferation assays and IL-2 ELISPOT assays, an empirical threshold of a Stimulation Index (SI) equal to or greater than two (SI≥2.00) has been previously established whereby samples inducing responses above this threshold are deemed positive whereas SI≥1.90 were considered as borderline responders.
Previous EpiScreen™ time course T-cell assays with a range of biologics have shown a clear correlation between the percentage of donor T-cell responses in the EpiScreen™ assay and the level of immunogenicity observed in the clinic. […]

VYKSPVVSGDTSPRHL (tau peptide) [Tau 393-408, 16-mer non-phosphorylated Tau peptide]
overall relative risk of inducing CD4+ T-cell responses: 2-8%
